The supplement of paper PMC9254222
The full ranking holds about 1,100 compounds; the median of “Renilla luciferase signal (cell health) relative to plate median” is about 0.97, and the highest 2% start at about 1.6. This is a selection; strong and weak results do not stand in their true shares.

Test system: HEK293T (UBE3A T485A transfected, BAR Wnt reporter)
Experiment: Renilla luciferase signal (cell health) relative to plate median (fold (linear ratio)); higher = higher Renilla signal
Details: 24 h
How it was run: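 Chemicals were robotically dosed at 0.01–100 uM for 24 h onto HEK293T cells, starting four hours after transfection with a BAR firefly luciferase Wnt reporter, TK-Renilla and an expression plasmid. The cells had been plated at 4500 cells/well in DMEM with 10% FBS at 37°C and 5% CO2. Following a Dual-Glo luciferase readout, the firefly/Renilla ratio served as the Wnt activity measure and raw Renilla as the cell health measure, both median-centred on each plate. Each value is the mean of four biological replicates.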

SMILES	Renilla luciferase signal (concentration: 0.1 uM)	Renilla luciferase signal (concentration: 1 uM)	Renilla luciferase signal (concentration: 10 uM)	Renilla luciferase signal (concentration: 100 uM)	Renilla luciferase signal (concentration: 0.01 uM)
CCCC(=O)OCC [Ethyl butyrate]	1.01	1.17	1.21	0.875	
Cc1nc(-c2ccccn2)ncc1C(=O)Nn1cc(C)c2cc(F)ccc21	0.941	0.877	1.05	1.02	
N#CSCSc1nc2ccccc2s1 [2-(Thiocyanomethylthio)benzothiazole]	1.06	1.07	1.05	0.00942	0.977
CC[C@H](C)[C@@H](C(=O)O)n1sc2ccccc2c1=O	0.944	1.08	1.57	1.49	
Oc1cc2ccccc2c2ccccc12 [9-Phenanthrol]	1.08	1.05	1.01	0.0207	
C#C[C@]1(O)CC[C@H]2[C@@H]3CCC4=CC(=O)CC[C@@H]4[C@H]3CC[C@@]21C [Norethindrone]	0.942	0.982	0.94	0.294	
Oc1ccc2ccccc2c1/N=N/c1ccccc1 [C.I. Solvent Yellow 14]	0.859	0.853	0.859	1.03	
COCC(C)O (stereo not given) [1-Methoxy-2-propanol]	0.936	1.12	1.25	1.5	
CC(=O)OC/C=C(\C)CCC=C(C)C [Geranyl acetate]	0.968	1.04	0.975	1.16	
COc1ccc(C(=O)Nc2nc3ccccc3c(NCc3ccccc3)c2C#N)cc1	0.975	0.949	0.982	0.154	
CNC(C)=O [N-Methylacetamide]	0.866	0.862	0.953	1.02	
C=CC(=C)CCC=C(C)C [Myrcene]	0.922	0.881	0.926	1	
Cl.NCC1(Cc2noc(=O)[nH]2)CCCCC1	0.881	0.861	0.847	0.932	
CC(=O)S[C@@H]1CC2=CC(=O)CC[C@]2(C)[C@H]2CC[C@@]3(C)[C@@H](CC[C@@]34CCC(=O)O4)[C@H]12 [Spironolactone]	1.02	1.07	1.41	0.763	
CC[C@H](c1ccc(O)cc1)[C@@H](CC)c1ccc(O)cc1 [meso-Hexestrol]	0.857	0.945	0.742	0.808	
CCCCCCCCCCCCCCCC [Hexadecane]	0.903	0.847	1.01	0.946	
O=C(Nc1ccc([N+](=O)[O-])cc1Cl)c1cc(Cl)ccc1O [Niclosamide]	1.33	0.273	0.00822	0.0081	1.45
CCCCCOC(C)=O [Pentyl acetate]	1.13	1.15	1.15	1.18	
Cl.Nc1ccn([C@@H]2O[C@H](CO)[C@@H](O)[C@@H]2O)c(=O)n1 [Cytarabine hydrochloride]	0.829	0.907	0.626	0.809	
Cc1ncc(CO)c(CO)c1O [Pyridoxine]	0.951	0.873	1	1.14	
CCN(CC)CCNc1ccc(CNC=O)c2sc3ccc(OC)cc3c(=O)c12	0.886	0.626	0.193	0.0173	
Cl.Cn1c(=O)cc(Oc2ccc(F)cc2F)c2cnc(NCC(C)(C)O)nc21	0.797	0.843	0.729	0.205	

A run of entries from further up, for reference:
SMILES	Renilla luciferase signal (concentration: 0.1 uM)	Renilla luciferase signal (concentration: 1 uM)	Renilla luciferase signal (concentration: 10 uM)	Renilla luciferase signal (concentration: 100 uM)	Renilla luciferase signal (concentration: 0.01 uM)
C#C[C@]1(O)CC[C@H]2[C@@H]3CCC4=CC(=O)CC[C@@H]4[C@H]3CC[C@@]21C [Norethindrone]	0.942	0.982	0.94	0.294	
Oc1ccc2ccccc2c1/N=N/c1ccccc1 [C.I. Solvent Yellow 14]	0.859	0.853	0.859	1.03	
